Source: paper PMC4374768

Molecular target: T1, His6-TyrR (UniProt B2D1S2)
T1 sequence (looked up, limits assumed): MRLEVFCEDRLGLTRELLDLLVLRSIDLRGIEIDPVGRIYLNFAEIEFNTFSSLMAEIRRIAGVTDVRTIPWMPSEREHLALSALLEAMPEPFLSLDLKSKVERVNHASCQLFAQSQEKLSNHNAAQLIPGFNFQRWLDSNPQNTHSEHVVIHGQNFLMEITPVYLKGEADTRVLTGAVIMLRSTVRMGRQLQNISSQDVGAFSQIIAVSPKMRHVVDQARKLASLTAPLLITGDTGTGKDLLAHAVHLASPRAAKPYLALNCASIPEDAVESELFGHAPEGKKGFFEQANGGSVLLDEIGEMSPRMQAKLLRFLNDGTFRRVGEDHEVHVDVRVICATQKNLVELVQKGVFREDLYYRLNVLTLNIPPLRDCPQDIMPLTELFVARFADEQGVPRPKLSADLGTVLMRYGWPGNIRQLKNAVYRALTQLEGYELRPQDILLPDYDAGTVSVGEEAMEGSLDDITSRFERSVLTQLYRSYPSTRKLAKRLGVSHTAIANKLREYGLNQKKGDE
Assay: EMSA
Settings: 0.1 mM ATP, no apparent affinity change, 20% glycerol, 250 mM NaCl, 50 mM Tris-Cl pH 7.5, 5 mM MgCl2, 2.5 mM DTT, 2.5 mM EDTA, 0.1 mM Trp, Phe or Tyr, 1 ug poly d(I-C), 50 ng DNA, recombinant protein, protein details: N-terminal His6, probe letters rebuilt from the primers and the genome

Measured: binding result

GGTTCGCATAACAGGTGTCCTTCTGACGTTGACCTCACTTTGAGTATTAAAGAAGCGTGATGGCTGTCCAGAATTGGTCGTAAGAAGGGCATGGAAAGAATGCTTTACAAAAAAGGCTGCGCTATGCTCTTTTTTTTCATGTAAATGTAAACGTATACACTGATTTTTCCTTTCAGCGCCAGAGGGCATCAGAATGGG (double strand) [akr-ipdC intergenic region wild-type]
binds: 0.1 mM L-phenylalanine | 0.1 mM L-tryptophan | 0.1 mM L-tyrosine

The exact form of at least one protein or probe is not confirmed. At least one verdict rests on a figure or table, not on a statement of the authors. Where a protein sequence is shown, tags need not be part of it.
